Source: patent US12692310B2, “ASIC1 channel antagonist antibody” (ShanghaiTech University, priority 2019, dated 2026)
These are yes or no findings as the source states them, for the method shown. For part of these data: Binding can be weak; no strength is given.

Assays:
[1] = biological target: truncated hASIC1a (amino acids 13-464) (human); assay: ELISA, biotinylated ΔhASIC1a nanodiscs on avidin, empty nanodiscs as negative control
[2] = biological target: truncated hASIC1a (amino acids 13-464) (human); assay: Octet, scFv format, ΔhASIC1a nanodiscs
[3] = biological target: truncated hASIC1a (amino acids 13-464) (human); assay: ELISA, biotinylated nanodiscs captured on avidin-coated wells, one antibody concentration, OD405
hASIC1a F352A (human) = assay: flow cytometry, CHO-K1 cells transiently transfected with the mutant labelled hASIC1a F352A (CHOK1-PHE352), ASC06-IgG1 and labelled second antibody

binding [1]	binding [2]	binding [3]	binding (hASIC1a F352A (human))	Binder
binds	binds	binds		ASC04 (scFv, V domains shown, also called ASC04 scFv; ASC04 (scFv format)) VH: QVQLVQSGAEVKKPGSSVKVSCKASGGTFSTYAINWVRQAPGQGLEWMGWMNPNSGNTGYAQKFQGRVTMTRNTSISTAYMELSSLRSEDTAVYYCARYSYGMDVWGQGTTVTVSS VL: QAVLTQPSSLSASPGASVSLTCTLRSGINVGAYRIYWYQQKPGSPPQFLLRYKSDSDKQQGSGVPSRFSGSRDASANAGILLISGLRSEDEADYYCAIWHSSAWVFGGGTKLTVLG
binds		binds		ASC05 (scFv, V domains shown, also called ASC05 scFv; ASC05 (scFv format)) VH: QVQLVESGAEVKKPGASVRVSCKASGYSFTNYYMHWVRQAPGQGLEWMGIISPSGRSTSFAQKFQGRVTMTRDTSTSTVYMHLSSLRSDDTAVYYCARGAWSTDAFDIWGQGTTVTVSS VL: QSALTQPASVSGSPGQSITISCTGTSSDVGSYNLVSWYQQHPGKAPKLMIYEGSKRPSGVSNRFSGSKSGNTASLTISGLQAEDEAEYHCSSFTGKGYVFGTGTKLTVLG
binds	binds	binds		ASC06 (scFv, V domains shown) VH: QVQLQQSGGGLVQPGGSLRLSCAASGFTFSSYAMSWVRQAPGKGLEWVSAISGSGGSTYYADSVKGRFTISRDNSKNTLYLQMNSLRAEDTAVYYCAKDSFYGYSKGDWGQGTLVTVSS VL: QSALTQPASVSGSPGQSITISCTGTSSDVGAYNYVSWYQQQPGKAPKLMIYGVSNRPSGVSNRFSGSKSGNAASLTISGLQAEDEADYYCSSYTSSSTYVFGTGTKLTVLG
			no binding	ASC06-IgG1 (antibody, V domains shown, also called full length (ASC06-IgG1); ASC06-lgG1) VH: QVQLQQSGGGLVQPGGSLRLSCAASGFTFSSYAMSWVRQAPGKGLEWVSAISGSGGSTYYADSVKGRFTISRDNSKNTLYLQMNSLRAEDTAVYYCAKDSFYGYSKGDWGQGTLVTVSS VL: QSALTQPASVSGSPGQSITISCTGTSSDVGAYNYVSWYQQQPGKAPKLMIYGVSNRPSGVSNRFSGSKSGNAASLTISGLQAEDEADYYCSSYTSSSTYVFGTGTKLTVLG
binds		binds		ASC01 (scFv, V domains shown, also called ASC01 scFv; ASC01 (scFv format)) VH: QVQLVETGPRLVKPSQTLSLTCTVSGGSINSGGYYWGWIRQHSGKGLEWIGYIYPRGSSYYNPSLRSRVTISADTSRNNFSLKLTSVTAADTAVYYCARVGYTGAFDIWGQGTLVTVSS VL: QAVLTQPSSVSAAPGQKVTISCSGGNSNIGNNYVSWYQQLPGTAPKLLIYDNNKRPSGIPDRFSGSKSGTAATLGITGLQTGDEADYYCGTWDSSLSAGVFGEGTQLTVLG
binds		binds		ASC03 (scFv, V domains shown, also called ASC03 scFv; ASC03 (scFv format)) VH: QVQLVESGAEVKKPGSSVKVSCKASGGNFRKYSISWVRQAPGQGLEWMGWISAYNGNTNYAQKLQGRVTMTTDTSTSTAYMELRSLRSDDTAVYYCARDFDPYYDAFDIWGQGTTVTVSS VL: QSALTQPASVSGSPGQSITISCTGTSSDVGAYNYVSWYQQHPGKAPKLMIYDVSNRLSGVSNRFSGSKSGNRASLTISGLQAEDEADYYCSSYRSGNSLAFGGGTKLTVLG
binds		binds		ASC02 (scFv, V domains shown, also called ASC02 scFv; ASC02 (scFv format)) VH: QVQLVQSGAEVKKPGASMKVSCTTSGYTVTGYYIHWLRQAPGQGFEWMGWINPNLGVTNYAQKFQGRVSMTRDPSIKTAYLELSGLRSDDTAMYYCARASTGGIFYDYWGQGTLVTVSS VL: NFMLTQPHSMSESPGKTVTISCTRSSGNIASNYVQWYQQRPGSSPTTVIYDDNQRPSGVPDRFSGSIDSISNSASLTISGLKTEDEADYYCQSYDSSSVIFGGGTKLTVLG
